# pKi: −log10 of the molar value. The structures given here were assigned with low confidence; some may be wrong.
# By UniProt entry, the sequences of proteins in these tests, tags left out.
# UniProt P51686, whole entry: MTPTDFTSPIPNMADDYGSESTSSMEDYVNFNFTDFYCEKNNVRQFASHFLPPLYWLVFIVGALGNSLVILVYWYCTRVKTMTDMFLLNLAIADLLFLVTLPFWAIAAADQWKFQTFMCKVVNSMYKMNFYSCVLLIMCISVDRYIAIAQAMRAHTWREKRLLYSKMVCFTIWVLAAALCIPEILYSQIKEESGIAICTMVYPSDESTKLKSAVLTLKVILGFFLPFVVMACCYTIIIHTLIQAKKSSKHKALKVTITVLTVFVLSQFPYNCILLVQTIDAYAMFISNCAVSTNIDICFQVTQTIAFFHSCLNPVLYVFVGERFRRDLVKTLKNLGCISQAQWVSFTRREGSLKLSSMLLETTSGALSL
# Experiments:
# CCR9 [1] = molecular target: T1, CCR9 (Homo sapiens, UniProt P51686); test: FLIPR calcium flux assay using MOLT4 cells (TECK stimulation); settings: MOLT4 cells (a human T-cell line); Ki determined from IC50 of TECK-induced intracellular calcium increase
# Description: Biological Activity: FLIPR Assay Using MOLT4 Cells
# A calcium flux assay was used to determine the ability of the compounds to interfere with the binding between CCR9 and its chemokine ligand (TECK) in MOLT4 cells (a human T-cell line). MOLT4 cells were seeded (100,000 cells/well) in coming cell culture plates (Cat #3603) in assay buffer (lx HBSS, 20 mM HEPES) containing 2.5 mM Probenecid. The plate was centrifuged at 1200 rpm for 3 minutes and incubated at 37° C./5% CO2 for 2 hours. A 0.3× Fluo-4 NW calcium dye was prepared in assay buffer containing 5 mM Probenecid and stored in the dark. Each well was loaded with 25 μL of 0.3× Fluo-4 NW calcium dye and incubated at 37 C/5% CO2 for 60 minutes and then at room temperature for 30 minutes. A half-log serially diluted concentration response curve was prepared at a 4× concentration for each (10 μM-0.1 nM final assay concentration) and 25 μL of the compound then transferred to the cells (100 μL final volume) for 60 minutes prior to stimulation (30 minutes at 37° C./5% CO2 and 30 minutes at room temperature). TECK was diluted to 5× its EC50 in assay buffer (containing 0.1% [w/v] bovine serum albumin [BSA]) and 25 μL dispensed through the FLIPR instrument to stimulate the cells (125 μL final volume). The increased in intracellular calcium levels was measured with the FLIPR instrument. The potency of the compound as CCR9 antagonist was calculated as an IC50 using GraphPad Prism software (variable slope four parameter). The Ki of the compound was determined from the IC50 values using the following equation.
# Ki calculation: IC50/1+(Agonist (TECK) conc. used in assay/EC50 of agonist (TECK) generated on day of experiment)
# CCR9 [2] = molecular target: T1, CCR9; test: FLIPR calcium flux assay using hCCR9 over expressed cells (TECK stimulation); settings: Chem1-hCCR9 overexpressing cells; Ki determined from IC50 of TECK-induced intracellular calcium increase
# Description: Biological Activity: FLIPR Assay Using hCCR9 Over Expressed Cells
# A calcium flux assay was used to determine the ability of the compounds to interfere with the binding between CCR9 and its chemokine ligand (TECK) in Cheml-hCCR9 overexpressing cells. hCCR9 overexpressing cells were seeded (25,000 cells/well) into black Poly-D-Lysine coated clear bottom 96-well plates (BD Biosciences, Cat #356640) and incubated overnight at 37° C./5% CO2 in a humidified incubator. Media was aspirated and cells washed twice with 100 μL assay buffer (1×HBSS, 20 mM HEPES) containing 2.5 mM Probenecid. A 0.3× Fluo-4 NW calcium dye was prepared in assay buffer containing 5 mM Probenecid and stored in the dark. Each well was loaded with 100 μL of 0.3× Fluo-4 NW calcium dye and incubated at 37° C./5% CO2 for 60 minutes and then at room temperature for 30 minutes. […] TECK was diluted to 4× its ECso in assay buffer (containing 0.1% [w/v] bovine serum albumin[BSA]) and 50 μL dispensed through the fluorometric imaging plate reader (FLIPR) instrument to stimulate the cells (200 μL final volume). The increase in intracellular calcium levels was measured with the FLIPR instrument. The potency of the compound as a CCR9 antagonist was calculated as an IC50 using GraphPad Prism software (variable slope four parameter). The Ki of the compound was determined from the IC50 values using the following equation. […]
Compound,pKi (CCR9 [1]),pKi (CCR9 [2])
Cn1cc(-c2cc3c(C#N)ccc(NS(=O)(=O)c4ccc(C(C)(C)C)cc4)n3n2)cn1,7.77,7.00
CC(C)(C)c1ccc(S(=O)(=O)Nc2ccc(Cl)c3cc(-c4ccnnc4)nn23)cc1,7.03,–
Cc1cc2nccc(NS(=O)(=O)c3ccc(N4CCCC4)cc3)n2n1,5.95,–
